Source: publication PMC7318359, “Stapled Peptides as HIF‐1α/p300 Inhibitors: Helicity Enhancement in the Bound State Increases Inhibitory Potency” (Chemistry (Weinheim an Der Bergstrasse, Germany), 2020)
Bridge positions count the residues as written; N and C are the ends. Peptide text beside a SMILES is read from it.

Assay: Circular dichroism of isolated peptides
Type: physicochemical
Conditions: unbound peptide, 250 μM, 20 mM sodium phosphate, pH 7.55, 20 °C; for [θ]MRE‐222: CD

Compound | [θ]MRE‐222 [deg cm^2 dmol^−1] | % helicity (CD) [%]
CC(=O)N[C@@H](CC(C)C)C(=O)N[C@@H](CCC(N)=O)C(=O)NCC(=O)N[C@H]1CSSC[C@@H](C(=O)N[C@@H](C)C(=O)N[C@@H](CC(C)C)C(=O)N[C@@H](CC(=O)O)C(=O)N[C@@H](CCC(N)=O)C(=O)N[C@H](C(=O)N[C@@H](CC(N)=O)C(N)=O)C(C)C)NC(=O)[C@H](CC(C)C)NC(=O)[C@H](CC(C)C)NC(=O)[C@H](CCC(=O)O)NC1=O [HIF‐1α812–826 oxE816C‐R820C] (Ac-LQGCELLCALDQVN-NH2; disulfide 4-8) | −3766 | 11
CC(=O)N[C@@H](CC(C)C)C(=O)N[C@@H](CCC(N)=O)C(=O)NCC(=O)N[C@@H](CS)C(=O)N[C@@H](CCC(=O)O)C(=O)N[C@@H](CC(C)C)C(=O)N[C@@H](CC(C)C)C(=O)N[C@@H](CS)C(=O)N[C@@H](C)C(=O)N[C@@H](CC(C)C)C(=O)N[C@@H](CC(=O)O)C(=O)N[C@@H](CCC(N)=O)C(=O)N[C@H](C(=O)N[C@@H](CC(N)=O)C(N)=O)C(C)C [HIF‐1α812–826 redE816C‐R820C] (Ac-LQGCELLCALDQVN-NH2) | −3375 | 10
Ac-LQGEELLRALDQVN-NH2 [wt‐HIF‐1α812–826, wild‐type HIF‐1α helix 3 peptide, N‐acetyl, C‐terminal amide] | −3954 | 12
